Measured values from article PMC4877760.

By UniProt entry, the sequences of proteins in these tests, tags left out. Where a name states a change or a piece, a line headed by the entry shows the natural chain unless it says otherwise. Chains listed by the source or under a name are the forms on record and can include a tag or linker. Residues count along the entry.
UniProt Q05655: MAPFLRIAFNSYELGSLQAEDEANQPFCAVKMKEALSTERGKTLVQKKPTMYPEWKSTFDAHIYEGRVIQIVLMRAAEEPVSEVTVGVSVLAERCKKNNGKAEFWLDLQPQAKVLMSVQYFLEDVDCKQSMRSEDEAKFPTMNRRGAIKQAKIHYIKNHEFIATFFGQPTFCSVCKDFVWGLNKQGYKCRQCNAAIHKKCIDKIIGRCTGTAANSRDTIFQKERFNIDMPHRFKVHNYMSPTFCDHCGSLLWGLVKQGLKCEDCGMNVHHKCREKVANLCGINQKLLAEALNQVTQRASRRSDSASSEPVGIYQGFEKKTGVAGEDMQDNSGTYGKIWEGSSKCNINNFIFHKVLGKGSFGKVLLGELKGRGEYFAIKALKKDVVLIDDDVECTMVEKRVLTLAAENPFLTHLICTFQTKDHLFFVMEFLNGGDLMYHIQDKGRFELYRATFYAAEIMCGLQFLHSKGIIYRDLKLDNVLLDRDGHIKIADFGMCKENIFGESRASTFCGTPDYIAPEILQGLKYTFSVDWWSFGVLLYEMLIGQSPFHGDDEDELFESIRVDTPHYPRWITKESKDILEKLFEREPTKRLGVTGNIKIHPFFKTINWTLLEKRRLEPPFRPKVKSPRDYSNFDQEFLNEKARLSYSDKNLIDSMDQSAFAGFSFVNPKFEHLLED
EGFP fusion of the C2 domain of PKCδ: residues 1-106 of Q05655
UniProt P05771: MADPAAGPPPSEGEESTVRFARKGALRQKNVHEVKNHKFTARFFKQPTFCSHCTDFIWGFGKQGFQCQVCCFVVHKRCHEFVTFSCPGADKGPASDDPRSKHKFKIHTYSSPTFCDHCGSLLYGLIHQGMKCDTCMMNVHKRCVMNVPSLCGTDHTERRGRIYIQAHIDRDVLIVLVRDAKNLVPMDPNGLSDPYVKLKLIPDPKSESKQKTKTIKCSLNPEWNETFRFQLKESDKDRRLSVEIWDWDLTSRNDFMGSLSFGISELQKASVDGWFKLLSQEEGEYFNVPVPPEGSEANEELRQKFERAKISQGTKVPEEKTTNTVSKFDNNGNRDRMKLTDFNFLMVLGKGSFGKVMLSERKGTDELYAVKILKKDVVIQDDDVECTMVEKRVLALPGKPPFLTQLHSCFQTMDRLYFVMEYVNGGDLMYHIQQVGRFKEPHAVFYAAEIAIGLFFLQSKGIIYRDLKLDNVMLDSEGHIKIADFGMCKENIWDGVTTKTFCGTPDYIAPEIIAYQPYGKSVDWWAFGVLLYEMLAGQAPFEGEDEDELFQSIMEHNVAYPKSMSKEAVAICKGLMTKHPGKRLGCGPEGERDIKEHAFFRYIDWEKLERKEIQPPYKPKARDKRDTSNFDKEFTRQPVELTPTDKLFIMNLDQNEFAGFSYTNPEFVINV
full-length EGFP-tagged PKCβII (P05771, form named): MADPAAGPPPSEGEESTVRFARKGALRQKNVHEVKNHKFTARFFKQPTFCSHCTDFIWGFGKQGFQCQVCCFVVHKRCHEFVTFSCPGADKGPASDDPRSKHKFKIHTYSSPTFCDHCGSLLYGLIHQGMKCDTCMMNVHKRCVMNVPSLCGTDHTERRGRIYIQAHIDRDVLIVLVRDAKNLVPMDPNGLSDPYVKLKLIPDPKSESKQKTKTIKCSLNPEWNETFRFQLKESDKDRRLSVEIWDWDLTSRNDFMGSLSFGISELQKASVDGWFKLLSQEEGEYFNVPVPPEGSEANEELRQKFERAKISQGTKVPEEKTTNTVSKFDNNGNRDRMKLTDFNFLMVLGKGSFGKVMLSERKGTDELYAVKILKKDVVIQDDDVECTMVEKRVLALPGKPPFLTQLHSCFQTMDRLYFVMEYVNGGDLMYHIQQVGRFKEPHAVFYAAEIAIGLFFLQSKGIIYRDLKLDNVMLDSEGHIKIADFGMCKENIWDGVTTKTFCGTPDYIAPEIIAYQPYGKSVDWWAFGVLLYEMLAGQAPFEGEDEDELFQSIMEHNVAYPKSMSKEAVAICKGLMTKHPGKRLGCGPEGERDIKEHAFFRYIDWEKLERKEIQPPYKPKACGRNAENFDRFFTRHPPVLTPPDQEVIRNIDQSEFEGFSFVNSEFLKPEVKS
UniProt P24723: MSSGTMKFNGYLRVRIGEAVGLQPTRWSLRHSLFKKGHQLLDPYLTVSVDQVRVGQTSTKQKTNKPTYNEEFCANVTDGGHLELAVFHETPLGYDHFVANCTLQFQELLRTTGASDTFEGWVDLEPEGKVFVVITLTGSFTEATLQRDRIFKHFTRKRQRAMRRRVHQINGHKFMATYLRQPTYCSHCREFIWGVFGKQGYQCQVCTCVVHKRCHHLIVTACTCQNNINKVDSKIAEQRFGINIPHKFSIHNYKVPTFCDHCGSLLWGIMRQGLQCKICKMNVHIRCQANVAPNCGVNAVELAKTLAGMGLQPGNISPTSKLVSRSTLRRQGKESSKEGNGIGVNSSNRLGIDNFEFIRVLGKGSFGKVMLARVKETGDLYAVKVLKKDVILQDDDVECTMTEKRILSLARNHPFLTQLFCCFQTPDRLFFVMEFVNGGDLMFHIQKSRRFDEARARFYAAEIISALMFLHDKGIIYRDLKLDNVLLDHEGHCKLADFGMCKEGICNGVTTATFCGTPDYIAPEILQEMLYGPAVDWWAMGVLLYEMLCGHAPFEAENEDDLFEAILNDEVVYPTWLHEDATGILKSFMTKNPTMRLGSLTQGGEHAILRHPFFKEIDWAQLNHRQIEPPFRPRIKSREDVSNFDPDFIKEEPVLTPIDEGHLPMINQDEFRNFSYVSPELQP
UniProt Q02156: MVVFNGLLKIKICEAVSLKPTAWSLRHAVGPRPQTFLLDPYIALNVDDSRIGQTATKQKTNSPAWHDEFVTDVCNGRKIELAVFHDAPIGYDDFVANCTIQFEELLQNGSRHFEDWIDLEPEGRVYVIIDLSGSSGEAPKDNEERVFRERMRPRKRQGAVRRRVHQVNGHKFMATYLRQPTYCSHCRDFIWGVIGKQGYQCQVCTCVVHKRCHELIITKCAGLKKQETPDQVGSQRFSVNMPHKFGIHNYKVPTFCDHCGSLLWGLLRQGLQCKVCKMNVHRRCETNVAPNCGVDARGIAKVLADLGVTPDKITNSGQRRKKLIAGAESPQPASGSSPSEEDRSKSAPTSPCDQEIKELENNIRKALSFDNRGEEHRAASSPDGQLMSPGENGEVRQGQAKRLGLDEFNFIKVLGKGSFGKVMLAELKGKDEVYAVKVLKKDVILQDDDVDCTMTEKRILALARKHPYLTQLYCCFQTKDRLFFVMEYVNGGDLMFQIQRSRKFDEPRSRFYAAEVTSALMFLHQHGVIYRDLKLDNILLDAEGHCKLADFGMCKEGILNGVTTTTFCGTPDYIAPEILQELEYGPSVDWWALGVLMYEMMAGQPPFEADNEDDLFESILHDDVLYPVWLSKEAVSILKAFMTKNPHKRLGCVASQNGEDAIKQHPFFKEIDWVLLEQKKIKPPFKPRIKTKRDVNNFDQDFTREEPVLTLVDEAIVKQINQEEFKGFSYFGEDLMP
UniProt Q04759: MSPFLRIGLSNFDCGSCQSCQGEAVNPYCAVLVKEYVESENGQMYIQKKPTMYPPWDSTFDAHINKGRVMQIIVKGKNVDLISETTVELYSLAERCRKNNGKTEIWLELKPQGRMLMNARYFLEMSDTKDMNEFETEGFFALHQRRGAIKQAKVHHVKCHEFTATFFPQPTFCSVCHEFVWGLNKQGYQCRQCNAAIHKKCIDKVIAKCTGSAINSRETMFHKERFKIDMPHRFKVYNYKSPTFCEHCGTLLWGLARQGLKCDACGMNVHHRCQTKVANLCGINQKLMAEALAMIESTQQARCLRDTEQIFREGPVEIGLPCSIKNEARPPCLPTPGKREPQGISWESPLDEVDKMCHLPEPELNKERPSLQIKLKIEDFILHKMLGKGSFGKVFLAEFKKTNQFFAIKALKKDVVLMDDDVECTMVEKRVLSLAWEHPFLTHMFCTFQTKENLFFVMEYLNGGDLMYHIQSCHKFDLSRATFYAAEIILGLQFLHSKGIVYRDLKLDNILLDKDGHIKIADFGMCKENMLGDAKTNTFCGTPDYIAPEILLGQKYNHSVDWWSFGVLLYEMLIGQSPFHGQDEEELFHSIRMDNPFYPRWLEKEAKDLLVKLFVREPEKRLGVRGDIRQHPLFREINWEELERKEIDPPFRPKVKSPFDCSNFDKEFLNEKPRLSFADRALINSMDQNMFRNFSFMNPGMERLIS
UniProt Q9NR28: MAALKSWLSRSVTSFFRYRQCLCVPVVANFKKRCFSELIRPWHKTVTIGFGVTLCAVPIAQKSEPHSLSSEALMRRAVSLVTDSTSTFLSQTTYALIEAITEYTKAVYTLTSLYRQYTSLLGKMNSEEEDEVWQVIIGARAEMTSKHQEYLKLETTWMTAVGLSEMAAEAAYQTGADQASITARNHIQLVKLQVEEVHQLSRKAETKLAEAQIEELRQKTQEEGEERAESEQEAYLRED

Columns and labels:
[1] = molecular target: EGFP-tagged full-length PKCδ (UniProt Q05655); assay: co-IP; COS-7 cells co-transfected with Smac-FLAG and EGFP-tagged PKC constructs; GFP-immunoprecipitation from lysates (μMACS GFP-Tagged Protein Isolation Kit), Western blot; where indicated cells treated with 16 nM TPA with or without 2 μM GF109203X for 16 h
[2] = molecular target: full-length EGFP-tagged PKCβII (UniProt P05771); assay: as above
[3] = molecular target: full-length PKCδ Y313D (EGFP fusion) (UniProt Q05655); assay: as above
[4] = molecular target: EGFP fusion of the C2 domain of PKCδ (UniProt Q05655); assay: as above
[5] = molecular target: full-length PKCδ Y155D (EGFP fusion) (UniProt Q05655); assay: as above
[6] = molecular target: full-length EGFP-tagged PKCη (UniProt P24723); assay: as above
[7] = molecular target: full-length PKCδ Y64D (EGFP fusion) (UniProt Q05655); assay: as above
[8] = molecular target: full-length EGFP-tagged PKCβI (UniProt P05771); assay: as above
[9] = molecular target: full-length EGFP-tagged PKCε (UniProt Q02156); assay: as above
[10] = molecular target: full-length EGFP-tagged PKCθ (UniProt Q04759); assay: as above
[11] = molecular target: endogenous PKCδ (human (endogenous in MCF-7)) (UniProt Q05655); assay: co-IP; MCF-7 cells transfected with Smac-HSV; immunoprecipitation of endogenous PKCδ with 1 μg anti-PKCδ antibody and protein G microbeads, Western blot; where indicated cells treated with 16 nM TPA for 16 h

Row | binding [1] | binding [2] | binding [3] | binding [4] | binding [5] | binding [6] | binding [7] | binding [8] | binding [9] | binding [10] | binding [11] | Substance
1 | binds | binds | binds | binds | binds | binds | binds | binds | binds | binds |  | full-length Smac-FLAG (from UniProt Q9NR28)
2 |  |  |  |  |  |  |  |  |  |  | binds | immature, MTS-containing Smac (from Smac-HSV) (from UniProt Q9NR28)

Results are given in words; binding and its absence hold for the method and conditions named. Binding seen in cells or lysates may run through a third protein. Binding calls can cover weak binding; strength is not graded here.
